Test results taken from doi:10.1101/204172.
These are yes or no findings as the source states them, for the method shown. In cells and extracts the contact can be indirect. A yes stands for co-enrichment or nearness to the bait. Other partners may have been found.

Sequences of proteins named here, by UniProt entry; tags and fusion partners are left off.
UniProt Q923J1: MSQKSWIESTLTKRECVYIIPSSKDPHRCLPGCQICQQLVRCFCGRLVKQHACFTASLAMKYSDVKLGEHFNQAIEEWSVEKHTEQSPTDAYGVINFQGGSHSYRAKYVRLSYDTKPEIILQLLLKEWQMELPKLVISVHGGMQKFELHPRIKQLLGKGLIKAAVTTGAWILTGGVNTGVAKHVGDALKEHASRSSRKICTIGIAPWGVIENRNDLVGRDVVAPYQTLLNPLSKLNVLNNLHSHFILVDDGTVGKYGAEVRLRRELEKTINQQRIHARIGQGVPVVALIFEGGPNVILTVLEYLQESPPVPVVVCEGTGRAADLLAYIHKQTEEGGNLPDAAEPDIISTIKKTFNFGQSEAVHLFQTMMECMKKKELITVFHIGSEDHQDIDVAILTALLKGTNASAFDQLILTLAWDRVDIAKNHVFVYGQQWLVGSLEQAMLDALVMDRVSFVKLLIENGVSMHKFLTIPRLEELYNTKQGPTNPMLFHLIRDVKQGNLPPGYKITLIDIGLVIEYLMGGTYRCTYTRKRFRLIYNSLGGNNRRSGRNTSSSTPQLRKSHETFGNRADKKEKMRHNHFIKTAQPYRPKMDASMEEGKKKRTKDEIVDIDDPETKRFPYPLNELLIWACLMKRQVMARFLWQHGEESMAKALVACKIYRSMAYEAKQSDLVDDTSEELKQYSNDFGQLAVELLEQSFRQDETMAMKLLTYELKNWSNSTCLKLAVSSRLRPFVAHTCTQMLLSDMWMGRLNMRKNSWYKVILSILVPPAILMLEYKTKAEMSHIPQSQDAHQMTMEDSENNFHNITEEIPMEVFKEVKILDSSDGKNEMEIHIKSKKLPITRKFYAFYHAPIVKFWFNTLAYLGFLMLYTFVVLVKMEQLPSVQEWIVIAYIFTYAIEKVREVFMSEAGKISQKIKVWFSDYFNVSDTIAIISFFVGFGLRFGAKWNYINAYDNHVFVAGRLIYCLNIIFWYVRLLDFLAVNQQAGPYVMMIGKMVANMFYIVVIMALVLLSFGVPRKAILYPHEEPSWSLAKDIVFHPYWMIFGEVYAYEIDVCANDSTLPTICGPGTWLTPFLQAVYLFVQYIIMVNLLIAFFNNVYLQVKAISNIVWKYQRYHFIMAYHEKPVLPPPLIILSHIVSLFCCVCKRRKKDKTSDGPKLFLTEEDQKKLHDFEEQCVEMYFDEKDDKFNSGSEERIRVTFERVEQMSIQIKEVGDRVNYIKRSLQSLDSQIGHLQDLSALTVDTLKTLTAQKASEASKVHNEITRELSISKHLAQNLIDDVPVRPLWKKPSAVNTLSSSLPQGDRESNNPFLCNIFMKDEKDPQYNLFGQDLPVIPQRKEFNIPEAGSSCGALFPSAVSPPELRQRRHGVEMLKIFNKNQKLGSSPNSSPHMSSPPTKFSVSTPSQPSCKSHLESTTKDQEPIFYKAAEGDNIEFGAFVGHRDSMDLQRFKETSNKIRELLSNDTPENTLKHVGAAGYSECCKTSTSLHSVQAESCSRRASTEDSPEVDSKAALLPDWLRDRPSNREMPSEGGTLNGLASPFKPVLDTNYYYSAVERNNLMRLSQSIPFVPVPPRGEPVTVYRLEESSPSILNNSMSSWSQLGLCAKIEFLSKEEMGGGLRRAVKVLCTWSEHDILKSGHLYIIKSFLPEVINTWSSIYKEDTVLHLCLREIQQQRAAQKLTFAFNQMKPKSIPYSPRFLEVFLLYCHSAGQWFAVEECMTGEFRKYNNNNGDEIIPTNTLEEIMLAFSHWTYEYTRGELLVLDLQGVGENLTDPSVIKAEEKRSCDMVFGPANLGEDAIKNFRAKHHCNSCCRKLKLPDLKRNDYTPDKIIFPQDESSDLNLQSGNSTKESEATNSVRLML
UniProt Q8CIR4: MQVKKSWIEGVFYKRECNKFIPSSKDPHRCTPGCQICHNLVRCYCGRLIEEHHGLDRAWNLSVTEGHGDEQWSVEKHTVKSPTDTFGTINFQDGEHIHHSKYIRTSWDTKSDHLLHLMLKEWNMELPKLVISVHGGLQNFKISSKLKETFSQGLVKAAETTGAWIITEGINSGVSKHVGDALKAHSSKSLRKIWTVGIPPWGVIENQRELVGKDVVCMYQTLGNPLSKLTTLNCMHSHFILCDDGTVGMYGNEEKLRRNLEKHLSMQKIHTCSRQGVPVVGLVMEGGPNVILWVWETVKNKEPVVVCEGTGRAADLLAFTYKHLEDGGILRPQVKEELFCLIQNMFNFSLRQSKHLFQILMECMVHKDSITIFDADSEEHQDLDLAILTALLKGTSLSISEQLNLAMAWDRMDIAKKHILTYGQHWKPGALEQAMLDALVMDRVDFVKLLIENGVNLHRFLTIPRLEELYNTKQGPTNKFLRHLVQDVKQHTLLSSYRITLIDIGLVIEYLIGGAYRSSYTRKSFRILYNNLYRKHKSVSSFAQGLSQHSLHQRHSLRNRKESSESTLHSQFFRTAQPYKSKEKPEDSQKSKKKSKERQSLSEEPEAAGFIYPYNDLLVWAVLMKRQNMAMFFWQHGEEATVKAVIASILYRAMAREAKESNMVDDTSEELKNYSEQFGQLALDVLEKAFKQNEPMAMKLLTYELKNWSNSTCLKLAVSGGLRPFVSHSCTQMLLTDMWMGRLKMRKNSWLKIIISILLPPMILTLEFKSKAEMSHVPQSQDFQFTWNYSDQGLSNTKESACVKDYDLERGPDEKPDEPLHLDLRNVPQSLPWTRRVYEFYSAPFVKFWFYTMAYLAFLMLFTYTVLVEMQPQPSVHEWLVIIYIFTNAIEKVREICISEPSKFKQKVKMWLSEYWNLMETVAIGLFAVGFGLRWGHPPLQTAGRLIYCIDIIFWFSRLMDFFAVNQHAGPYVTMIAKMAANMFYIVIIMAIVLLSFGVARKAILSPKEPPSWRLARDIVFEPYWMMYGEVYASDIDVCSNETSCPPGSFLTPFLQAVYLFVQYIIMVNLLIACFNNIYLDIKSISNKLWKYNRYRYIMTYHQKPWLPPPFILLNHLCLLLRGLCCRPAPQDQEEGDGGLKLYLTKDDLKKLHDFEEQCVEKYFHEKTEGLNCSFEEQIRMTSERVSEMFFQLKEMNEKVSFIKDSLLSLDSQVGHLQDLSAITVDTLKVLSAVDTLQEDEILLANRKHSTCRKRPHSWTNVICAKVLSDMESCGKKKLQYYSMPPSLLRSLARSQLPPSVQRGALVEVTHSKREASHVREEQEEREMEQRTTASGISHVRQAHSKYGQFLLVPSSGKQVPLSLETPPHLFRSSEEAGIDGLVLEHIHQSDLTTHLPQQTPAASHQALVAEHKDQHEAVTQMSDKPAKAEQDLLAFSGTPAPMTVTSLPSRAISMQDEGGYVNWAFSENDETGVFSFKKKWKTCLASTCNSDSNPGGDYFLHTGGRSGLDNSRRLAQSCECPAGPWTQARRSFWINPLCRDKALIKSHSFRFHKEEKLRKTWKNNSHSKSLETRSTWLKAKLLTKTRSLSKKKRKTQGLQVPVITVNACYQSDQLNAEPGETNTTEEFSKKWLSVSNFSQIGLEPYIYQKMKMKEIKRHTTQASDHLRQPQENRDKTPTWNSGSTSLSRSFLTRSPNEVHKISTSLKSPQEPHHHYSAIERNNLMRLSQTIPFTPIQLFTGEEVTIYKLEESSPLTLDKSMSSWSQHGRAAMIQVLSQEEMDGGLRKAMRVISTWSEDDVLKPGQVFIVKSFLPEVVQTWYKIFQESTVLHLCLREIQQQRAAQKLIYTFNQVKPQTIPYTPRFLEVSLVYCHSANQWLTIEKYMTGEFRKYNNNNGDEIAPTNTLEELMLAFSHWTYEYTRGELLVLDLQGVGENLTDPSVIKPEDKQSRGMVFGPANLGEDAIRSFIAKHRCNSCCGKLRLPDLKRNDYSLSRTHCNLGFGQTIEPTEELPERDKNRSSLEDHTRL
UniProt P11142: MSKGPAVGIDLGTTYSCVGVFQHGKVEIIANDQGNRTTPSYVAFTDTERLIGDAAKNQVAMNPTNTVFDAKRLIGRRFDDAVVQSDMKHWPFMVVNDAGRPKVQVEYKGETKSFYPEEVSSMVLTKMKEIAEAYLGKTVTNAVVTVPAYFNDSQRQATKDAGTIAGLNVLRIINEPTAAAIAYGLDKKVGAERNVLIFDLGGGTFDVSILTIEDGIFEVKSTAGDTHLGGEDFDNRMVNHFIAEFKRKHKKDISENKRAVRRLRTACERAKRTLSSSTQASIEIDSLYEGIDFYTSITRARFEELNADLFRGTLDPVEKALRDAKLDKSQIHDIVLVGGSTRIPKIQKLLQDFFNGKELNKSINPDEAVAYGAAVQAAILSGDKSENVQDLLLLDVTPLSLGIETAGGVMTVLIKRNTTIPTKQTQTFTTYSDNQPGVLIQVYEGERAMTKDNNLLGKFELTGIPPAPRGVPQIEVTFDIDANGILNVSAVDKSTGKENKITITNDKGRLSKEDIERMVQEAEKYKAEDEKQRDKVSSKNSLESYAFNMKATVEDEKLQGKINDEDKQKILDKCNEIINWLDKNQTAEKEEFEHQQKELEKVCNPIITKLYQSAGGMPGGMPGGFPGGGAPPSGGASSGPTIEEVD

Legend:
[1] = molecular target: HA-tagged TRPM7 (canonical splice form, full length) (mouse) (UniProt Q923J1); assay: affinity purification with mass spectrometry
[2] = molecular target: HA-tagged TRPM6 (canonical splice form, full length) (mouse) (UniProt Q8CIR4); assay: affinity purification with mass spectrometry

In the case of “human heat shock protein cognate 71 (from UniProt P11142 1-646)”, the binding [1] is reported as “binds” and the binding [2] is reported as “binds”.
